Results as given in article PMC8004131 (Viruses, 2021).
No constants are given. Whether binding was seen depends on the method and setting. Binding seen in cells or lysates may run through a third protein. Some entries that bind do so weakly or less than the wild type.

Chains of the proteins cited; added tags and fusions are not shown. Residues count along the entry.
UniProt O89342, residues 27-546: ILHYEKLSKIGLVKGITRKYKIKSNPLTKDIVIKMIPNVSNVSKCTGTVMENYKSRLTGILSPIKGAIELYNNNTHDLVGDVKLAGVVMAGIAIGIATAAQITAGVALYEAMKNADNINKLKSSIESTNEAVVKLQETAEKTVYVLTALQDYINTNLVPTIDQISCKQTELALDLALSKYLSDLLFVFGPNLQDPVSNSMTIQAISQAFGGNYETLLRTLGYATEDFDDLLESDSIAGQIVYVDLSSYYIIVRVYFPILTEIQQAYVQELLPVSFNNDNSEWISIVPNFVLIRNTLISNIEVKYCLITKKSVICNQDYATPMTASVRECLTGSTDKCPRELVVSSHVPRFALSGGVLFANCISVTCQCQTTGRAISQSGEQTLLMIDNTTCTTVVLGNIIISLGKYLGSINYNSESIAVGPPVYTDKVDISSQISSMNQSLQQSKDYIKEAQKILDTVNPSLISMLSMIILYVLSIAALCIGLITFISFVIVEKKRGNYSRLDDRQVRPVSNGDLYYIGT

Target: Hendra virus fusion glycoprotein (HeV F), full length, S-tagged (Hendra virus) (UniProt O89342)
Experiment: cross-linking

Hendra virus fusion glycoprotein (HeV F), full length, S-tagged (from UniProt O89342)
binding: binds
